Assay results taken from doi:10.1101/2021.11.16.21266115.
Results are given in words; binding and its absence hold for the method and conditions named. In cells and extracts the contact can be indirect. Some entries that bind do so weakly or less than the wild type.

Sequences of proteins named here, by UniProt entry; tags and fusion partners are left off.
UniProt Q9ULZ3: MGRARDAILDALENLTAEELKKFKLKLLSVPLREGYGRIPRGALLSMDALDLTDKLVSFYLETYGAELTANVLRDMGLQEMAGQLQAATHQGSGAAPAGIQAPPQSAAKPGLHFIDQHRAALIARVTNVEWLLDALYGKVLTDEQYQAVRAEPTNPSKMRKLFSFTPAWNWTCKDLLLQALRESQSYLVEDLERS

B1: melanoma differentiation-associated protein 5 (MDA5) (protein, UniProt Q9BYX4 1-1025)
chain: MSNGYSTDENFRYLISCFRARVKMYIQVEPVLDYLTFLPAEVKEQIQRTVATSGNMQAVELLLSTLEKGVWHLGWTREFVEALRRTGSPLAARYMNPELTDLPSPSFENAHDEYLQLLNLLQPTLVDKLLVRDVLDKCMEEELLTIEDRNRIAAAENNGNESGVRELLKRIVQKENWFSAFLNVLRQTGNNELVQELTGSDCSESNAEIENLSQVDGPQVEEQLLSTTVQPNLEKEVWGMENNSSESSFADSSVVSESDTSLAEGSVSCLDESLGHNSNMGSDSGTMGSDSDEENVAARASPEPELQLRPYQMEVAQPALEGKNIIICLPTGSGKTRVAVYIAKDHLDKKKKASEPGKVIVLVNKVLLVEQLFRKEFQPFLKKWYRVIGLSGDTQLKISFPEVVKSCDIIISTAQILENSLLNLENGEDAGVQLSDFSLIIIDECHHTNKEAVYNNIMRHYLMQKLKNNRLKKENKPVIPLPQILGLTASPGVGGATKQAKAEEHILKLCANLDAFTIKTVKENLDQLKNQIQEPCKKFAIADATREDPFKEKLLEIMTRIQTYCQMSPMSDFGTQPYEQWAIQMEKKAAKEGNRKERVCAEHLRKYNEALQINDTIRMIDAYTHLETFYNEEKDKKFAVIEDDSDEGGDDEYCDGDEDEDDLKKPLKLDETDRFLMTLFFENNKMLKRLAENPEYENEKLTKLRNTIMEQYTRTEESARGIIFTKTRQSAYALSQWITENEKFAEVGVKAHHLIGAGHSSEFKPMTQNEQKEVISKFRTGKINLLIATTVAEEGLDIKECNIVIRYGLVTNEIAMVQARGRARADESTYVLVAHSGSGVIEHETVNDFREKMMYKAIHCVQNMKPEEYAHKILELQMQSIMEKKMKTKRNIAKHYKNNPSLITFLCKNCSVLACSGEDIHVIEKMHHVNMTPEFKELYIVRENKALQKKCADYQINGEIICKCGQAWGTMMVHKGLDLPCLKIRNFVVVFKNNSTKKQYKKWVELPITFPNLDYSECCLFSDED
B2: retinoic acid-inducible gene I (RIG-I) (protein, UniProt O95786 1-925)
chain: MTTEQRRSLQAFQDYIRKTLDPTYILSYMAPWFREEEVQYIQAEKNNKGPMEAATLFLKFLLELQEEGWFRGFLDALDHAGYSGLYEAIESWDFKKIEKLEEYRLLLKRLQPEFKTRIIPTDIISDLSECLINQECEEILQICSTKGMMAGAEKLVECLLRSDKENWPKTLKLALEKERNKFSELWIVEKGIKDVETEDLEDKMETSDIQIFYQEDPECQNLSENSCPPSEVSDTNLYSPFKPRNYQLELALPAMKGKNTIICAPTGCGKTFVSLLICEHHLKKFPQGQKGKVVFFANQIPVYEQQKSVFSKYFERHGYRVTGISGATAENVPVEQIVENNDIIILTPQILVNNLKKGTIPSLSIFTLMIFDECHNTSKQHPYNMIMFNYLDQKLGGSSGPLPQVIGLTASVGVGDAKNTDEALDYICKLCASLDASVIATVKHNLEELEQVVYKPQKFFRKVESRISDKFKYIIAQLMRDTESLAKRICKDLENLSQIQNREFGTQKYEQWIVTVQKACMVFQMPDKDEESRICKALFLYTSHLRKYNDALIISEHARMKDALDYLKDFFSNVRAAGFDEIEQDLTQRFEEKLQELESVSRDPSNENPKLEDLCFILQEEYHLNPETITILFVKTRALVDALKNWIEGNPKLSFLKPGILTGRGKTNQNTGMTLPAQKCILDAFKASGDHNILIATSVADEGIDIAQCNLVILYEYVGNVIKMIQTRGRGRARGSKCFLLTSNAGVIEKEQINMYKEKMMNDSILRLQTWDEAVFREKILHIQTHEKFIRDSQEKPKPVPDKENKKLLCRKCKALACYTADVRVIEECHYTVLGDAFKECFVSRPHPKPKQFSSFEKRAKIFCARQNCSHDWGIHVKYKTFEIPVIKIESFVVEDIATGVQTLYSKWKDFHFEKIPFDPAEMSK

Biological target: apoptosis-associated speck-like protein containing CARD (ASC) (human (endogenous in HBECs)) (UniProt Q9ULZ3)
Assay: co-IP

Row | Binder | binding
1 | B1 | no binding
2 | B2 | binds
